PubChem BioAssay AID1159591 – NIAID, 2016

- Purpose: 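TLR7/8 agonist R848 and Tnf expression after gene knock-down in mouse macrophages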
- System: mouse RAW264.7 G9 macrophage reporter clone (GFP-p65, Tnf promoter-mCherry)
- Knock-down reagent: single siRNA against mouse genes
- Time to read-out: cells assayed 48 to 72 hours after siRNA transfection; R848 for 16 hours before fixing
- Treatment: R848 (TLR7/8 agonist) for 16 hours before fixation; dose not given
- Measured: 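After R848 for 16 hours, nuclear Tnf promoter mCherry signal imaged minus background, scaled per plate by median and MAD into robust z against non-targeting controls, averaged across replicates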
- Scale: mean Tnf reporter z-score: higher = stronger Tnf promoter reporter signal than controls
- Rule for the call: 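Absolute z above 1, 1.5, 2 or 2.5 scores 25 up to 100; no stated active threshold; in practice calls fall at roughly z ≤ -1.5 or z ≥ 1.5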
- Meaning of the calls: active = reporter clearly up or down; inactive = little reporter change
In all, the deposit lists 756 reagents; below is an unselected part. 130 of them (17%) were called active. 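Active calls include both lower and higher Tnf reporter signal.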 Entries without a mark were called inactive. Reagents against one gene are numbered here. The record does not give: the amount of reagent.

| gene knocked down | siRNA no. | mean Tnf reporter z-score |
| --- | --- | --- |
| Irak3 | 1 | -0.808 |
| Irak3 | 2 | -0.805 |
| Irak3 | 3 | 0.394 |
| Irak3 | 4 | 0.163 |
| Irak3 | 5 | 0.0156 |
| Irak3 | 6 | -0.427 |
| Ikbkb | 1 | -1.1 |
| Ikbkb | 2 | -1.89 (active) |
| Ikbkb | 3 | -0.875 |
| Ikbkb | 4 | 0.436 |
| Ikbkb | 5 | -1.4 |
| Ikbkb | 6 | -0.395 |
| Nfkbia | 1 | 0.0868 |
| Nfkbia | 2 | -1.59 (active) |
| Nfkbia | 3 | 0.837 |
| Nfkbia | 4 | -0.176 |
| Nfkbia | 5 | 0.482 |
| Nfkbia | 6 | -1.23 |
| Ube2n | 1 | -0.0544 |
| Ube2n | 2 | -1.02 |
| Ube2n | 3 | -0.111 |
| Ube2n | 4 | -0.259 |
| Ube2n | 5 | -0.836 |
| Ube2n | 6 | -0.421 |
| Irak4 | 1 | -1.28 |
| Irak4 | 2 | -2.42 (active) |
| Irak4 | 3 | -1.94 (active) |
| Irak4 | 4 | -2.39 (active) |
| Irak4 | 5 | -3.86 (active) |
| Irak4 | 6 | -1.58 (active) |
| Tbkbp1 | 1 | 0.463 |
| Tbkbp1 | 2 | -1.49 |
| Tbkbp1 | 3 | 0.716 |
| Tbkbp1 | 4 | 0.877 |
| Tbkbp1 | 5 | 0.561 |
| Tbkbp1 | 6 | -0.132 |
| Pik3cb | 1 | 0.617 |
| Pik3cb | 2 | -1.86 (active) |
| Pik3cb | 3 | -0.498 |
| Pik3cb | 4 | 0.303 |
| Pik3cb | 5 | -3.78 (active) |
| Pik3cb | 6 | -0.659 |
| Irak2 | 1 | -1.59 (active) |
| Irak2 | 2 | -1.72 (active) |
| Irak2 | 3 | -2.35 (active) |
| Irak2 | 4 | -1.99 (active) |
| Irak2 | 5 | -2.26 (active) |
| Irak2 | 6 | -2.02 (active) |
| Mapk8 | 1 | 0.975 |
| Mapk8 | 2 | 0.095 |
| Mapk8 | 3 | 0.0329 |
| Mapk8 | 4 | -0.609 |
| Mapk8 | 5 | -1.62 (active) |
| Mapk8 | 6 | 0.302 |
| Ikbke | 1 | -0.982 |
| Ikbke | 2 | -2.19 (active) |
| Ikbke | 3 | -0.538 |
| Ikbke | 4 | -1.08 |
| Ikbke | 5 | -0.158 |
| Ikbke | 6 | -1.81 (active) |
| Map2k1 | 1 | -0.32 |
| Map2k1 | 2 | -0.794 |
| Map2k1 | 3 | -1.11 |
| Map2k1 | 4 | 0.354 |
| Map2k1 | 5 | -0.399 |
| Map2k1 | 6 | -0.429 |
| Elk1 | 1 | -1.58 (active) |
| Elk1 | 2 | 0.121 |
| Elk1 | 3 | 0.0745 |
| Elk1 | 4 | -3.01 (active) |
| Elk1 | 5 | -3.46 (active) |
| Elk1 | 6 | -1.97 (active) |
| Map2k2 | 1 | -0.0883 |
| Map2k2 | 2 | -1.2 |
| Map2k2 | 3 | -0.858 |
| Map2k2 | 4 | -0.917 |
| Map2k2 | 5 | -1.31 |
| Map2k2 | 6 | 0.154 |
| Peli1 | 1 | 0.563 |
| Peli1 | 2 | 0.119 |
| Peli1 | 3 | 0.668 |
| Peli1 | 4 | 1.27 |
| Peli1 | 5 | -0.961 |
| Peli1 | 6 | -1.79 (active) |
| Pik3cd | 1 | -0.018 |
| Pik3cd | 2 | -1.5 (active) |
| Pik3cd | 3 | -0.826 |
| Pik3cd | 4 | -1.4 |
| Pik3cd | 5 | -0.0342 |
| Pik3cd | 6 | -0.808 |
| Elk4 | 1 | -0.887 |
| Elk4 | 2 | 0.24 |
| Elk4 | 3 | -0.795 |
| Elk4 | 4 | 0.304 |
| Elk4 | 5 | -0.39 |
| Elk4 | 6 | -0.766 |
| Map2k4 | 1 | -0.117 |
| Map2k4 | 2 | 0.354 |
| Map2k4 | 3 | -0.226 |
| Map2k4 | 4 | 0.365 |
| Map2k4 | 5 | -0.79 |
| Map2k4 | 6 | -1.34 |
| Nfkbie | 1 | -1.03 |
| Nfkbie | 2 | -1.59 (active) |
| Nfkbie | 3 | 0.224 |
| Nfkbie | 4 | -0.775 |
| Nfkbie | 5 | -0.824 |
| Nfkbie | 6 | 0.529 |
| Relb | 1 | -0.23 |
| Relb | 2 | 0.283 |
| Relb | 3 | -1.47 |
| Relb | 4 | 0.587 |
| Relb | 5 | -1.47 |
| Relb | 6 | -0.484 |
| Ccl3 | 1 | -0.564 |
| Ccl3 | 2 | -0.0831 |
| Ccl3 | 3 | -1.04 |
| Ccl3 | 4 | 1.15 |
| Ccl3 | 5 | 1 |
| Ccl3 | 6 | -3.16 (active) |
| Il12b | 1 | -1.25 |
| Il12b | 2 | -0.847 |
| Il12b | 3 | -0.443 |
| Il12b | 4 | -0.0683 |
| Il12b | 5 | -0.781 |
| Il12b | 6 | 1.14 |
| Tollip | 1 | 0.174 |
| Tollip | 2 | -1.17 |
| Tollip | 3 | -2.09 (active) |
| Tollip | 4 | 0.333 |
| Tollip | 5 | 0.52 |
| Tollip | 6 | -3.9 (active) |
| Mapk1 | 1 | -1.19 |
| Mapk1 | 2 | -2.12 (active) |
| Mapk1 | 3 | -1.17 |
| Mapk1 | 4 | -0.804 |
| Mapk1 | 5 | 0.0882 |
| Mapk1 | 6 | -0.000574 |
| Map2k6 | 1 | -0.267 |
| Map2k6 | 2 | 0.231 |
| Map2k6 | 3 | -0.663 |
| Map2k6 | 4 | 0.876 |
| Map2k6 | 5 | -0.689 |
| Map2k6 | 6 | 0.849 |

As entered above:
Value of Tollip #3 in “mean Tnf reporter z-score”: -2.09 (active)
Entry of Elk1 #4 in “mean Tnf reporter z-score”: -3.01 (active)
Ikbkb #3, mean Tnf reporter z-score → -0.875
For “mean Tnf reporter z-score”, Elk4 #1 has -0.887
Value of Ikbke #1 under “mean Tnf reporter z-score”: -0.982
Value for Map2k6 #5 under “mean Tnf reporter z-score”: -0.689
